# From the supplement of paper PMC3047530
# This is one part of the list. Single values are uncertain, as repeats are few or missing.
# System: Geomyces destructans
# Assay: growth inhibition relative to DMSO control; higher = stronger growth inhibition
# Conditions: 10 µM; 15 °C; incubation time 10 days
row,SMILES,growth inhibition
1,ClC1=C(Cl)C2(Cl)C3C4C=CC(C4)C3C1(Cl)C2(Cl)Cl (stereo not drawn),-5%
2,C[C@]12CCC3C(CC[C@H]4C[C@H](O)CC[C@]34C)C1CC[C@@H]2O (stereo partly drawn),-1.75%
3,COC(=O)COc1cc(Cl)c(Cl)cc1Cl,0.943%
4,CC(=O)OCC1=C(C(=O)O)N2C(=O)[C@@H](NC(=O)CCC[C@@H](N)C(=O)O)[C@H]2SC1,-10.5%
5,COc1c2c(cc3c1OCO3)CC[N+](C)=C2,-13.3%
6,Cc1cccc(C)c1NC1=NCCCS1,1.41%
7,C[C@]12CCC(=O)C=C1CCc1ccc(O)cc12,-5.7%
8,C[C@]12CC[C@H](Cl)C[C@@H]1CC[C@@H]1[C@@H]2CC[C@]2(C)C(=O)CC[C@@H]12 [3beta-CHLOROANDROSTANONE],8.52%
9,C=C1[C@@H]2CCC3[C@@](CC[C@@H]4[C@H](C(=O)O)C[C@@H](O[C@@H]5O[C@H](CO)[C@@H](OS(=O)(=O)O)[C@H](OS(=O)(=O)O)[C@H]5OC(=O)CC(C)C)C[C@@]34C)(C2)[C@@H]1O (stereo partly drawn),-11.6%
10,CC[C@H]1CN2CCc3cc(OC)c(OC)cc3[C@@H]2C[C@@H]1C[C@H]1NCCc2cc(OC)c(OC)cc21,-6.39%
11,CNC(C)C(O)c1ccccc1 (stereo not drawn),-22.2%
12,COc1ccc(C(=O)O[C@H]2CC[C@@]3(C)[C@@H]4CC[C@H]5[C@]6(O)C[C@H](O)[C@@]7(O)[C@@H](CN8C[C@@H](C)CC[C@H]8[C@@]7(C)O)[C@]6(O)C[C@@]53O[C@]24O)cc1OC,-23.5%
13,CO[C@H]1[C@H](O)[C@H](O[C@H]2CC[C@@]3(C)[C@H](CC[C@@H]4[C@@H]3CC[C@]3(C)[C@@H](C5=CC(=O)OC5)CC[C@]43O)C2)O[C@@H](C)[C@@H]1O,-34.5%
14,COc1cc([C@@H]2c3cc4c(cc3[C@H](O)[C@H]3COC(=O)[C@H]23)OCO4)cc(OC)c1OC,-2.76%
15,Cc1ccc(O)cc1.Cc1cccc(O)c1.Cc1ccccc1O,-6.35%
16,CC[C@H]1[C@@H]2C[C@H]3[C@@H]4N(C)c5ccccc5[C@]45C[C@@H]([C@@H]2[C@H]5O)N3[C@@H]1O,-21.5%
17,C[C@@H]1CC[C@H]2[C@@H](C)C(=O)O[C@@H]3O[C@@]4(C)CC[C@@H]1[C@]32OO4,-0.953%
18,CN1[C@@H]2C[C@@H]3C[C@H]1[C@H](O)[C@H]2O3,-3.08%
19,COc1ccc(C[C@H]2NC[C@H](O)[C@H]2OC(C)=O)cc1,-13.3%
20,CC(C)N(C(=O)SCC(Cl)=C(Cl)Cl)C(C)C,-2.71%
21,CCc1cccc(C)c1N(C(=O)CCl)C(C)COC (stereo not drawn),-5.15%
22,O=C1c2ccccc2C(=O)c2ccccc21,13.6%

row,SMILES,growth inhibition
1,Oc1c(Cl)c(Cl)c(Cl)c(Cl)c1Cl,-6.83%
2,CNC(C)[C@H](O)c1ccccc1 (stereo partly drawn),-12.5%
3,CC(C)=CCCC1(C)C=Cc2c(O)c3c(c(CC=C(C)C)c2O1)OC12C(=CC4CC1C(C)(C)OC2(C/C=C(/C)C(=O)O)C4O)C3=O (stereo not drawn),-9.36%
4,COC[C@]12CN(C=O)[C@@H]3[C@@H]4[C@H](OC)[C@H]1[C@@]3([C@@H](OC)C[C@H]2O)[C@@H]1C[C@@]2(O)[C@H](OC(=O)c3ccccc3)[C@@H]1[C@]4(OC(C)=O)[C@@H](O)[C@@H]2OC,-3.8%
5,C[C@H]1C(=O)O[C@@H]2CCN3CC=C(COC(=O)[C@](C)(O)[C@]1(C)O)[C@H]23,-11%
6,CO[C@]12C[C@@H](COC(=O)c3cncc(Br)c3)CN(C)[C@@H]1Cc1cn(C)c3cccc2c13,-32.5%
7,O=[N+]([O-])/N=C1\NCCN1Cc1ccc(Cl)nc1,-2.71%
8,C/C=C(/C)C(=O)O[C@H]1CC[C@@]2(C)[C@@H]3CC[C@H]4[C@]5(O)C[C@H](O)[C@@]6(O)[C@@H](CN7C[C@@H](C)CC[C@H]7[C@@]6(C)O)[C@]5(O)C[C@]42O[C@]13O,-34.9%
9,O=C(O)COc1cc(Cl)c(Cl)cc1Cl,90.4%
10,COc1cc2c(cc1OC)[C@@H]1C(=O)c3ccc4oc(C(C)C)cc4c3O[C@@H]1CO2,-12.9%
11,O=C(O)CCC1NCC2CC1CN1CCCCC21 (stereo not drawn),-20.4%
12,C[N+]12CCC(CC1)C(OC(=O)C(O)(c1ccccc1)c1ccccc1)C2 (stereo not drawn),-9.69%
13,CN(C)C(=S)SSC(=S)N(C)C,85.4%
14,O=C1NC(=O)C(=O)C(=O)N1,-3.09%
15,CC(C)(C)NCC(O)c1ccccc1Cl (stereo not drawn),-3.54%
16,CC(=O)OC1CC(OC(C)=O)C2(C)C(CC(OC(C)=O)C3(C)C2CCC2(C)C(c4ccoc4)CC4OC423)C1(C)C (stereo not drawn),-12%
17,CC(C)C[C@H]1C(=O)N2CCC[C@H]2[C@]2(O)O[C@](NC(=O)[C@@H]3C=C4c5cccc6[nH]c(Br)c(c56)C[C@H]4N(C)C3)(C(C)C)C(=O)N12,9.25%
18,CN1[C@@H]2CC[C@H]1C[C@@H](OC(=O)C(CO)c1ccccc1)C2 (stereo partly drawn),-16.4%
19,CCC(C)C(OC(C)=O)C(=O)OC1C(O)C2C3(C)C=CC(=O)C(C)(C)C3CC(OC(=O)C(O)C(C)C)C2(C)C23OC2CC(c2ccoc2)C13C (stereo not drawn),-12.7%
20,CN1[C@@H]2CC[C@H]1C[C@@H](OC(c1ccccc1)c1ccccc1N)C2 (stereo partly drawn),16.6%
21,CN1Cc2c(ccc3c2OCO3)C2C(O)Cc3cc4c(cc3C21)OCO4 (stereo not drawn),1%
22,C[C@]12CCC(=O)C(O)=C1CC[C@@H]1[C@@H]2CC[C@]2(C)C(=O)CC[C@@H]12,4.68%

# Looked up by structure from the entries so far (4):
row,SMILES,growth inhibition
3,CC(C)=CCCC1(C)C=Cc2c(O)c3c(c(CC=C(C)C)c2O1)OC12C(=CC4CC1C(C)(C)OC2(C/C=C(/C)C(=O)O)C4O)C3=O (stereo not drawn),-9.36%
14,O=C1NC(=O)C(=O)C(=O)N1,-3.09%
21,CCc1cccc(C)c1N(C(=O)CCl)C(C)COC (stereo not drawn),-5.15%
10,CC[C@H]1CN2CCc3cc(OC)c(OC)cc3[C@@H]2C[C@@H]1C[C@H]1NCCc2cc(OC)c(OC)cc21,-6.39%

# Going on with the list:

row,SMILES,growth inhibition
1,CCOP(=S)(OCC)Oc1cc(C)nc(C(C)C)n1,-7.44%
2,CNC(C)(C)Cc1ccccc1,-1.9%
3,CNC(Cc1c[nH]c2ccccc12)C(=O)O (stereo not drawn),-12.3%
4,O=C(O)CCCOc1ccc(Cl)cc1Cl,-2.87%
5,COc1ccc(C(CN(C)C)C2(O)CCCCC2)cc1 (stereo not drawn),-29.5%
6,COc1cc2c(cc1OC)-c1c(oc3c4c(ccc3c1=O)OC(C(C)C)C4)CO2 (stereo not drawn),4.1%
7,CN1[C@H]2C[C@H](OC(=O)[C@H](CO)c3ccccc3)C[C@@H]1[C@@H](O)C2,-37.4%
8,CN(C)C(=O)Oc1cccc([N+](C)(C)C)c1,-10.1%
9,COc1ccc(C(=O)O)cc1OC,1.97%
10,CN1CCc2cc3c(cc2C1O)OCO3 (stereo not drawn),-37.6%
11,COc1cccc2c1cc([N+](=O)[O-])c1c(C(=O)O)cc3c(c12)OCO3,15.5%
12,COc1ccc(/C=C/c2cc(O)cc(O)c2)cc1,6.39%
13,CC(=O)[O][Hg][c]1ccccc1,91.1%
14,O=c1[nH]c2ccccc2n1C1CCN(CCCC(c2ccc(F)cc2)c2ccc(F)cc2)CC1,-28.2%
15,CC(=O)Nc1cc([As](=O)(O)O)ccc1O,-4.87%
16,C/C=C(\C)C(=O)O[C@H]1C[C@@H](OC(C)=O)[C@@]2(C(=O)OC)CO[C@H]3[C@@H](O)[C@@](C)([C@]45O[C@@]4(C)[C@H]4C[C@@H]5O[C@@H]5OC=C[C@@]54O)[C@H]4[C@]1(CO[C@]4(O)C(=O)OC)[C@@H]32,5.21%
17,Cc1cc2c(C(C)C)c(O)c(O)c(C=O)c2c(O)c1-c1c(C)cc2c(C(C)C)c(O)c(O)c(C=O)c2c1O,11.1%
18,COc1c(CC=C(C)C)c2c(c3oc(=O)c(-c4ccc(O)cc4)c(O)c13)C=CC(C)(C)O2,-4.92%
19,COc1cc2c(cc1OC)[C@@H]1C(=O)c3ccc(OC)c(CC=C(C)C)c3O[C@@H]1CO2,-1.97%
20,CN(C)C(=O)Oc1ccc[n+](C)c1,-0.639%
21,c1cc2c(cc1[C@H]1OC[C@H]3[C@@H]1CO[C@H]3c1ccc3c(c1)OCO3)OCO2,7.02%
22,C=C1[C@@H]([C@@]2(C)[C@@H](OC(C)=O)CC(=O)O[C@](C)(COC(C)=O)[C@@H]2C(=O)OC)[C@@H](OC=O)[C@H](OC(=O)[C@H](O)[C@H](C)CC)[C@@]2(C)[C@H](c3ccoc3)CC(=O)[C@]12O,-16.9%

row,SMILES,growth inhibition
1,c1ccc2c(c1)[nH]c1cnccc12,11%
2,CCC(C)c1cnc(CC(C)C)c(=O)n1O (stereo not drawn),4.33%
3,COc1cc(C(=O)O)cc(OC)c1OC,-5.49%
4,COC1=C[C@]23CCCN2CCc2cc4c(cc2[C@@H]3[C@@H]1O)OCO4,-2.02%
5,NCCCNCCSP(=O)(O)O,-9.53%
6,CC(C)c1ccc2c(c1O)CC[C@H]1C3=C(CC[C@]21C)C(=O)OC3,-4.09%
7,COc1cc2occc2c2oc(=O)ccc12,-22.8%
8,CCCCCCCCC(=O)NCc1ccc(O)c(OC)c1,-3.65%
9,COc1cc2c(cc1O)C[C@H]1c3c(cc(O)c(OC)c3-2)CCN1C,-2.18%
10,C[C@H]1CC[C@]2(NC1)O[C@H]1C[C@H]3[C@@H]4CC[C@H]5C[C@@H](O[C@@H]6O[C@H](CO)[C@H](O[C@@H]7O[C@H](CO)[C@@H](O)[C@H](O[C@@H]8OC[C@@H](O)[C@H](O)[C@H]8O)[C@H]7O[C@@H]7O[C@H](CO)[C@@H](O)[C@H](O)[C@H]7O)[C@H](O)[C@H]6O)CC[C@]5(C)[C@H]4CC[C@]3(C)[C@H]1[C@@H]2C,-9.03%
11,CC1(C)C(=O)C=C[C@@]2(C)C1=C(O)C(=O)[C@]1(C)[C@@H]2CC[C@@]2(C)[C@H](c3ccoc3)C[C@H]3O[C@]321,-2.22%
12,O=C1CCO1,7.52%
13,Cc1c(O)c(O)cc2c1CC=C1[C@@]2(C)CC[C@@]2(C)[C@@H]3C[C@](C)(C(=O)O)CC[C@]3(C)CC[C@]12C,-0.882%
14,CCOC(=O)NC1=C(N2CC2)C(=O)C(NC(=O)OCC)=C(N2CC2)C1=O,-15.7%
15,CC([C@H](O)c1ccccc1)N(C)C (stereo partly drawn),-6.7%
16,COc1ccc(OC)c(C(O)C(C)N)c1 (stereo not drawn),-3.31%
17,CCC(=O)O[C@H]1CC[C@H]2[C@@H]3CCC4=CC(=O)CC[C@]4(C)[C@H]3CC[C@]12C,7.75%
18,CNC(=O)N(C)c1nnc(C(C)(C)C)s1,-6.07%
19,O=C1C(Cl)=C(Cl)C(=O)C(Cl)=C1Cl,-32.3%
20,C[C@@H]1CC[C@]2(NC1)O[C@H]1C[C@H]3[C@@H]4CC=C5C[C@@H](O)CC[C@]5(C)[C@H]4CC[C@]3(C)[C@H]1[C@@H]2C,-15.8%
21,Oc1ccc(Cl)cc1Cc1cc(Cl)ccc1O,-18.6%
22,CC12CCC3C(CCC4(O)CC(O)CCC34/C=N/NC(N)=O)C1(O)CCC2C1=CC(=O)OC1 (stereo not drawn),-4.12%
